## Library screening results

The chains behind the UniProt entries cited, without tags or fusion partners.
UniProt E9BF75, entry or part of it: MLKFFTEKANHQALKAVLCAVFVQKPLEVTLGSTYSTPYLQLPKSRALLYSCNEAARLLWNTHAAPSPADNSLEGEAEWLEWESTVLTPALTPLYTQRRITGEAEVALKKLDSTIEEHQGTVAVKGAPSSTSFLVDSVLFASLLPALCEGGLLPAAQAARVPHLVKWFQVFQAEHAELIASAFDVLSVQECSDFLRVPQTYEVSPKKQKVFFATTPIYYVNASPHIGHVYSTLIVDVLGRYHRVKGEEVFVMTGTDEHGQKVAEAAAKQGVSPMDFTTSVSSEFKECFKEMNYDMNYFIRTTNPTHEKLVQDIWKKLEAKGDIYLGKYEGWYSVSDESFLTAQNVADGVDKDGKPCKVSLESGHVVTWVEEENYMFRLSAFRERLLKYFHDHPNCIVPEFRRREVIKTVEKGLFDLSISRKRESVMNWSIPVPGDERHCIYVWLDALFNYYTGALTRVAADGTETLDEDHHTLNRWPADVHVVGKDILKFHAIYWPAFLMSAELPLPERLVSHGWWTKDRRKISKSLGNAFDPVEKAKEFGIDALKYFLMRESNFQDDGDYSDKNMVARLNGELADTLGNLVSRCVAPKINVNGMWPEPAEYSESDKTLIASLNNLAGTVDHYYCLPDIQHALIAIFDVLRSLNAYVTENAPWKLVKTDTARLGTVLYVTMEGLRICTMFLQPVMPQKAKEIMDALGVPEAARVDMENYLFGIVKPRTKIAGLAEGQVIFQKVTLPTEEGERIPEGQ

Data taken from ChEMBL document CHEMBL3988442, “University of Dundee, Small-Polar-MMV Screening Library” (2021).

A: 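Methionyl-tRNA synthetase (putative), Leishmania donovani (UniProt E9BF75). Primary screen of methionyl-tRNA synthetase; the read-out is not stated. The test concentration is not given. The values are filed as inhibition. About 68,000 compounds were tested under these conditions; 0.035% (about 24) showed 50% or more at least once.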
B: 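Assay on Mycobacterium tuberculosis, filed only as a heat shock assay from Cornell; the read-out is not stated. The concentration is filed as 10 mM, unlikely as a test dose, so the dose is not known. The record gives no direction; compounds that gave an IC50 in retests scored well above the rest, so higher reads as stronger inhibition. About 69,000 compounds were tested under these conditions; 1.4% (about 930) showed 50% or more at least once.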

Results are percentages, as filed.
How 0% and 100% were set is not recorded. Most values in the screen are low, and negative values occur.
Compounds were drawn at random from those tested, without regard to their results.

compound: CC(C)CC(=O)NC1CC2(CCN(CCF)CC2)Oc2ccccc21 (stereo not drawn)
A: 11.76

compound: CN(c1ncc(S(N)(=O)=O)s1)C1CCc2ccccc2C1 (stereo not drawn)
A: 10.03
B: 1.851

compound: CCC(=O)N1CCC(Oc2ccc(C(=O)NCCN(C)C)cc2Cl)CC1
A: -2.135
B: -25.68

compound: O=C(c1sccc1C1CC1)N1CCN(c2cnccn2)CC1
A: 22.85
B: -27.48

compound: c1ccc(N2CCCC2)c(NCc2ccncc2)c1
A: 7.186
B: -19.28

compound: COCCN(Cc1ccccn1)C(=O)Nc1cccnc1-n1cccn1
A: 7.627
B: -17.85

compound: CN(Cc1ncnn1C)c1ccnc(Cc2ccccc2)n1
A: 22.06
B: -4.6

compound: Cc1cc(C)c2ncn(CCC(C)O)c(=O)c2c1 (stereo not drawn)
A: 17.25
B: 7.585

compound: Cc1ccccc1CN(C)C(=O)CCc1nc(-c2nnc[nH]2)no1
A: 1.229
B: -7.954

compound: CC1=N[C@@]2(CC[C@@H]3CN(C(=O)Nc4ccc(F)cc4)C[C@@H]32)C(=O)N1C
A: 11.98

compound: O=C1CC(c2ccc(C(=O)O)cc2)c2c(sc3c2CCCC3)N1 (stereo not drawn)
A: 6.842
B: 14.41

compound: Cc1noc(-c2ccc(N3CCCC(C(=O)c4nccn4C)C3)nc2)n1 (stereo not drawn)
A: 18.44
B: 15.66

compound: Cc1ccc(C)c(Oc2ccc(CNC(=O)C3CCC(=O)N3)cn2)c1 (stereo not drawn)
A: 10.2
B: -2.363

compound: CC(=O)N1CCN(c2nc3c(cnn3C(C)(C)C)c(=O)[nH]2)CC1
A: 12.41
B: 20.37

compound: COc1cccc2c1OCC(CNC(=O)CSc1ccccn1)C2 (stereo not drawn)
A: 12.03
B: -20.16

compound: COCC(=O)N1CCC2(CC(=O)N(c3cccc(F)c3)C2)C1 (stereo not drawn)
A: 5.155
B: -17.98

compound: CCCN1CCCn2nc(CNS(=O)(=O)c3ccc(F)cc3)cc2C1
A: 6.267
B: -2.401

compound: COCCO[C@@H]1CCN(Cc2csc(C)n2)[C@H]1Cc1ccccc1
A: 6.32

compound: CCOc1ccnc(N2CCN(C(=O)c3cn[nH]c3C)CC2)n1
A: 5.352
B: -15.47

compound: CN(C)C(=O)[C@H]1C[C@@H]2CN(CCc3ccccc3)C[C@H]1O2
A: 5.397

compound: Cc1ccc(S(=O)(=O)NC(=O)CCOCc2ccccc2)s1
A: 3.623
B: -16.45

compound: CC(C)n1ccnc1C1CCN(C(=O)c2ccccc2)CC1
A: 11.11
B: -11.33

compound: CN(C)CC1CN(CCOc2cccc(C#N)c2)CCO1 (stereo not drawn)
A: 10.24
B: -16.94

compound: [H][C@@]12CCN(C(=O)C3CCSCC3)C[C@]1(COC)CCO2
B: -9.365

compound: COCCn1c(=O)n(Cc2ccc(Cl)s2)c2cc(C(=O)O)ccc21
A: 12.57
B: 1.204

compound: [H][C@]12CCN(C(=O)C(C)(C)C)CC[C@@]1([H])S(=O)(=O)CCN2S(C)(=O)=O
B: -5.973

Once more, the final 2:

For COCCn1c(=O)n(Cc2ccc(Cl)s2)c2cc(C(=O)O)ccc21 the result was A: 12.57%; B: 1.204%.
For [H][C@]12CCN(C(=O)C(C)(C)C)CC[C@@]1([H])S(=O)(=O)CCN2S(C)(=O)=O the result was B: -5.973%.